Values from PubChem BioAssay AID1508597 (Cure First, 2020).

Aim: 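Knock-downs altering ovarian cancer cell survival with or without PARP inhibitor rucaparib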 (primary screen)
Cell system: human ovarian carcinoma lines grown from tumours: OCI-P5x (papillary serous) and OCI-C5x (clear cell)
Reagents: siRNA pool against human genes, 1.25 pmol siRNA per well
Duration: 72 h or 96 h, depending on the cell culture
Challenge: rucaparib 20 µM (about IC30) or vehicle, present until read-out
Rucaparib or vehicle: Vehicle
Cell line: OCI-P5x (serous)
Detection: 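ATP luminescence measured at 72 or 96 h according to the culture, then normalised and expressed as percent viability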
Scale: viability, normalised: higher = more viable cells remaining
Active means: 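a well counts as a hit if its normalised viability is under 80 percent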
Meaning of the calls: active = viability under 80%; inactive = viability 80% or more
This is a random part of the about 2,100 reagents, in one setting of the screen. 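Calls flag viability under 80% in either arm, not effects specific to rucaparib; the reference for percent is not stated.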 A reagent listed more than once was tested more than once; the source does not tell the runs apart. Not stated in the record: the 100% reference.

Target gene | technical replicate | viability, normalised (%) | activity call
ROBO1 | 1 | 67.7 | active
ROBO1 | 2 | 80.6 | inactive
ROBO1 | 3 | 115 | inactive
PELP1 | 1 | 68.7 | active
PELP1 | 2 | 59.2 | active
PELP1 | 3 | 72.2 | active
IGHMBP2 | 1 | 67.7 | active
IGHMBP2 | 1 | 64.4 | active
IGHMBP2 | 2 | 91.3 | inactive
IGHMBP2 | 2 | 43 | active
IGHMBP2 | 3 | 51 | active
IGHMBP2 | 3 | 84.8 | inactive
PIK3R3 | 1 | 83.2 | inactive
PIK3R3 | 2 | 75.8 | active
PIK3R3 | 3 | 79.7 | active
RPIA | 1 | 70.6 | active
RPIA | 2 | 77.4 | active
RPIA | 3 | 59.4 | active
PARP10 | 1 | 46.1 | active
PARP10 | 2 | 45.2 | active
PARP10 | 3 | 56.1 | active
MAPK7 | 1 | 91.3 | inactive
MAPK7 | 2 | 98.4 | inactive
MAPK7 | 3 | 92.9 | inactive
ANKK1 | 1 | 69.4 | active
ANKK1 | 2 | 74.8 | active
ANKK1 | 3 | 47.6 | active
SSBP1 | 1 | 107 | inactive
SSBP1 | 2 | 88.2 | inactive
SSBP1 | 3 | 98.1 | inactive
H2BC12 | 1 | 71.5 | active
H2BC12 | 2 | 64.3 | active
H2BC12 | 3 | 76.9 | active
NECAB3 | 1 | 98.9 | inactive
NECAB3 | 2 | 98.7 | inactive
NECAB3 | 3 | 92.2 | inactive
ASXL3 | 1 | 60.1 | active
ASXL3 | 2 | 71.3 | active
ASXL3 | 3 | 69.1 | active
WNK4 | 1 | 49.9 | active
WNK4 | 2 | 55.2 | active
WNK4 | 3 | 50.6 | active
DDX31 | 1 | 71.9 | active
DDX31 | 2 | 75.8 | active
DDX31 | 3 | 68.8 | active
MYLK | 1 | 78.5 | active
MYLK | 1 | 105 | inactive
MYLK | 2 | 88.8 | inactive
MYLK | 2 | 84.1 | inactive
MYLK | 3 | 107 | inactive
MYLK | 3 | 91 | inactive
ID4 | 1 | 66.6 | active
ID4 | 2 | 66.3 | active
ID4 | 3 | 55.8 | active
KDM4D | 1 | 55.6 | active
KDM4D | 2 | 47.7 | active
KDM4D | 3 | 50.5 | active
KDM3B | 1 | 53.5 | active
KDM3B | 2 | 59.6 | active
KDM3B | 3 | 61.4 | active
RECQL5 | 1 | 40.1 | active
RECQL5 | 1 | 160 | inactive
RECQL5 | 2 | 63.1 | active
RECQL5 | 2 | 135 | inactive
RECQL5 | 3 | 163 | inactive
RECQL5 | 3 | 80.2 | inactive
TH | 1 | 56.8 | active
TH | 2 | 66.9 | active
TH | 3 | 63.7 | active
FANCL | 1 | 54.7 | active
FANCL | 2 | 55.5 | active
FANCL | 3 | 56 | active
ULK1 | 1 | 63.9 | active
ULK1 | 2 | 56.7 | active
ULK1 | 3 | 60.5 | active

Quoted from above, 7 entries:
Target gene | technical replicate | viability, normalised (%) | activity call
TH | 3 | 63.7 | active
FANCL | 1 | 54.7 | active
FANCL | 2 | 55.5 | active
FANCL | 3 | 56 | active
ULK1 | 1 | 63.9 | active
ULK1 | 2 | 56.7 | active
ULK1 | 3 | 60.5 | active
